EC50 data for one molecule are collected here from PMC6763016 (PLoS ONE, 2019).

For this test, the system named is T1, α1-adrenoceptors of dorsal raphe serotonergic neurons.
T1 construct: gene Adra1a
The settings on record: competitive antagonist (inhibitory half-maximal concentration); 1 μM phenylephrine as agonist; 20 nM Way-100635 and synaptic blockers present; 34-36 °C; geometric mean of 15.

Turning to `O=c1n(CCCN2CCN(c3cccc(Cl)c3)CC2)nc2ccccn12` [Trazodone], the EC50 was 1980 nM.

As a reminder, the EC50 is the concentration needed to bring the measured effect to its halfway point. High values mean a less potent agent, low ones a more potent agent.
